Experimental data taken from the supplement of paper PMC12823440, “Inhibitors supercharge kinase turnover through native proteolytic circuits” (Nature, 2025).
Structures can show the parent of a compound that is named as a salt. The list shows a part of the results. The calls rarely recur for the same compound in another form.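 Kinases, fused to nanoluciferase, were expressed in K562 cells; luminescence was measured every 4 h from 2 to 18 h as percent of control (DMSO = 100%, positive control = 0%). A time point is decreased if signal falls significantly (2 sigma). Hits were called by the authors by a rule that is not shown; the count of time points alone does not decide it.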

Protein sequences, listed by entry. Tags and fused reporters are not part of them. Lines headed by an entry give the natural chain unless they say otherwise; changes in a name come on top.
UniProt Q9UBF8: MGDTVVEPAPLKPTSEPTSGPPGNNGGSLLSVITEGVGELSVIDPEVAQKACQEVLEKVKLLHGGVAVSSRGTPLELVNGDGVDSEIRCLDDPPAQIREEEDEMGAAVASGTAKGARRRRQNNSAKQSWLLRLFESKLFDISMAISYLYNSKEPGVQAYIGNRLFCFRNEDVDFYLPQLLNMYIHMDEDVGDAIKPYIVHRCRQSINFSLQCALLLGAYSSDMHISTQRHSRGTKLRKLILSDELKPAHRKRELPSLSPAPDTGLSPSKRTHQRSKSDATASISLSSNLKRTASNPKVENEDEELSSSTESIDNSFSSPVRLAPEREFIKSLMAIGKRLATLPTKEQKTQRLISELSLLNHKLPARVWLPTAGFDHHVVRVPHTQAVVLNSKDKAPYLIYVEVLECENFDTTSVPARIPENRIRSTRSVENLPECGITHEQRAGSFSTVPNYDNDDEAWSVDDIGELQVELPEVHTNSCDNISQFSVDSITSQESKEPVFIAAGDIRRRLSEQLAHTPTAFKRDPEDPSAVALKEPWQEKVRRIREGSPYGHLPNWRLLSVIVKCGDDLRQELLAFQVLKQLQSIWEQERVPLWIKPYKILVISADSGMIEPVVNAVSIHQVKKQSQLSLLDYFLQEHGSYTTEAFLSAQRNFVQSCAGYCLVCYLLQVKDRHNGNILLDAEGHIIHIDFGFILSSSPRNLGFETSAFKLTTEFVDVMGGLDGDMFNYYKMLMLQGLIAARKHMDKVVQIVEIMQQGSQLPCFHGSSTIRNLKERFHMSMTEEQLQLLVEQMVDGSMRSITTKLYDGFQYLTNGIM
UniProt Q05397, whole entry, looked up: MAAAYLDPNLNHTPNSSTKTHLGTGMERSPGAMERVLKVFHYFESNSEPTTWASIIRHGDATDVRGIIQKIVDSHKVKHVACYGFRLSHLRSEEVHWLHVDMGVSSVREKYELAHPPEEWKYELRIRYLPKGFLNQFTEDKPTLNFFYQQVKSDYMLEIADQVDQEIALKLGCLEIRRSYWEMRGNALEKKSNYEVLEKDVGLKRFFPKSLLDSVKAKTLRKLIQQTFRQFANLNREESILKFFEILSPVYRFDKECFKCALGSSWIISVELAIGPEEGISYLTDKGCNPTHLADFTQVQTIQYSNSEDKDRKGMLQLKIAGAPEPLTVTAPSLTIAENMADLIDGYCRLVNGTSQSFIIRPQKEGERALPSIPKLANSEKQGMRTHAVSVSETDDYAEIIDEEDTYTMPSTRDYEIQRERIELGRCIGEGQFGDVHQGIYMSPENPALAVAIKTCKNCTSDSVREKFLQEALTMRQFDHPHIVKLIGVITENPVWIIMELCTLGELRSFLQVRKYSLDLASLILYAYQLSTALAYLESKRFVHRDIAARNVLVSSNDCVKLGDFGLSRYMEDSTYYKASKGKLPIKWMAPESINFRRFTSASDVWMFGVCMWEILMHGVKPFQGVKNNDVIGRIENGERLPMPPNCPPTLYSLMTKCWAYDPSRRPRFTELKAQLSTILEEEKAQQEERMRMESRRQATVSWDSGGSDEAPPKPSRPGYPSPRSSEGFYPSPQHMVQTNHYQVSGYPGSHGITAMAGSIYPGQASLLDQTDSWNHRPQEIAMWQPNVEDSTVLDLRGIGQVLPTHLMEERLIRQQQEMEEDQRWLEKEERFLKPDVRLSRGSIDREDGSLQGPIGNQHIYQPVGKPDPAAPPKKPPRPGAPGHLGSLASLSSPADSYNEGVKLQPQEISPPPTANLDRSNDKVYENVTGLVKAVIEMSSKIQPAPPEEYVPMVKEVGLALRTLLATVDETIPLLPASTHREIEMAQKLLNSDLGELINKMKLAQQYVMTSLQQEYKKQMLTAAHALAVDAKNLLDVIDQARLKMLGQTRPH
UniProt Q14289, whole entry, looked up: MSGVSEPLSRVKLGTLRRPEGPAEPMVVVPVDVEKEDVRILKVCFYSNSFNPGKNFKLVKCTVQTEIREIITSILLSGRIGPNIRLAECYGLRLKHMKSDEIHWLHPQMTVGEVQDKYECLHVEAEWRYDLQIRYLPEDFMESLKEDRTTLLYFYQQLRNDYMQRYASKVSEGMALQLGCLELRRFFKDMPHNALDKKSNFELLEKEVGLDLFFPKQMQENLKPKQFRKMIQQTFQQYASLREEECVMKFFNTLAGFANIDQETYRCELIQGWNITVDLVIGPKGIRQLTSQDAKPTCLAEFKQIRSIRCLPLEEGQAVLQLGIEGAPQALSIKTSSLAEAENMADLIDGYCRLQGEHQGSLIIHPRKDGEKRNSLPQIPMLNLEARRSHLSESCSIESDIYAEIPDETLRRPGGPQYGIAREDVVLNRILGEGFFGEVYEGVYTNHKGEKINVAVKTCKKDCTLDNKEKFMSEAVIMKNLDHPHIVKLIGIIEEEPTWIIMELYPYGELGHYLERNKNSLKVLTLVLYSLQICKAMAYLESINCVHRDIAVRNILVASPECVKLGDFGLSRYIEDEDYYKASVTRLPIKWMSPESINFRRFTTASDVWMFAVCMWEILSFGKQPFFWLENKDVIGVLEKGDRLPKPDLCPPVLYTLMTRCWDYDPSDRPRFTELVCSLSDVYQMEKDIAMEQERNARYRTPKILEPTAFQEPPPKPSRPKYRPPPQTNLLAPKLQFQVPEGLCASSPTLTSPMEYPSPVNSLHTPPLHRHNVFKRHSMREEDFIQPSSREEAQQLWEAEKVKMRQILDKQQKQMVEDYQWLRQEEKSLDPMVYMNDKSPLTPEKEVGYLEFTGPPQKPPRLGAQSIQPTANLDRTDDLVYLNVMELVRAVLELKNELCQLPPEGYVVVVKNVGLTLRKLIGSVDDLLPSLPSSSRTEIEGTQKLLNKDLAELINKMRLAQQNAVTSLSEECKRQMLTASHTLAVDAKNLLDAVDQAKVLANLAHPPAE
UniProt P07949, whole entry, looked up: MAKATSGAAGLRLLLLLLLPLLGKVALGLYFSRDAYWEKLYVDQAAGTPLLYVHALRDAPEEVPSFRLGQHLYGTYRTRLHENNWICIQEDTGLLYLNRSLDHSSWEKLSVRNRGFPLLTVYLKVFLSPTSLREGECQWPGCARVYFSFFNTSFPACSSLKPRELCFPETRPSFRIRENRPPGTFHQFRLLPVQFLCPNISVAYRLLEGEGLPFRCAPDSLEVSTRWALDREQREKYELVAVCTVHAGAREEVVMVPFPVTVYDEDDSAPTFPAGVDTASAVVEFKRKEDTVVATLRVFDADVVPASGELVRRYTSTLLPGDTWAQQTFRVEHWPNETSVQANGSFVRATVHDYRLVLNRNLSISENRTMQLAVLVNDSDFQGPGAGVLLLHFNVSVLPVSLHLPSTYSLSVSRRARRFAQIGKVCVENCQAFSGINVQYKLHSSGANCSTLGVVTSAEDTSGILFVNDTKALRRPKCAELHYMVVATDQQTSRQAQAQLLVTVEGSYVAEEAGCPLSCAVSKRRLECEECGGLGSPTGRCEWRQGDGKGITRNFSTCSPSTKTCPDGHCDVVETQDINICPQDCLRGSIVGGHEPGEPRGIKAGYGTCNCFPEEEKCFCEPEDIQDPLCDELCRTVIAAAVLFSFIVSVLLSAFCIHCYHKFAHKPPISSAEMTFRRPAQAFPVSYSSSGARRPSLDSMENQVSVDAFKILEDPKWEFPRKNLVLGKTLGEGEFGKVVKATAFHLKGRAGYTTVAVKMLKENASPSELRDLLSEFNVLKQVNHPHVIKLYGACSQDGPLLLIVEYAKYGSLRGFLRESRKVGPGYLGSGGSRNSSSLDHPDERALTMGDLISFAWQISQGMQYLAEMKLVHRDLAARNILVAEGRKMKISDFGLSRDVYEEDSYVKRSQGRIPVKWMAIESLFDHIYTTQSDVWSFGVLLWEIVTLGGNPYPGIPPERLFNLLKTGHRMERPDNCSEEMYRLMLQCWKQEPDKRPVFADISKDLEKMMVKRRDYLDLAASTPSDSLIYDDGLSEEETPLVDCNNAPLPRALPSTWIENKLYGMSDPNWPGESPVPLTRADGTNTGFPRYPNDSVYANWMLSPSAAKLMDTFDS
UniProt P07949, whole entry M918T, looked up: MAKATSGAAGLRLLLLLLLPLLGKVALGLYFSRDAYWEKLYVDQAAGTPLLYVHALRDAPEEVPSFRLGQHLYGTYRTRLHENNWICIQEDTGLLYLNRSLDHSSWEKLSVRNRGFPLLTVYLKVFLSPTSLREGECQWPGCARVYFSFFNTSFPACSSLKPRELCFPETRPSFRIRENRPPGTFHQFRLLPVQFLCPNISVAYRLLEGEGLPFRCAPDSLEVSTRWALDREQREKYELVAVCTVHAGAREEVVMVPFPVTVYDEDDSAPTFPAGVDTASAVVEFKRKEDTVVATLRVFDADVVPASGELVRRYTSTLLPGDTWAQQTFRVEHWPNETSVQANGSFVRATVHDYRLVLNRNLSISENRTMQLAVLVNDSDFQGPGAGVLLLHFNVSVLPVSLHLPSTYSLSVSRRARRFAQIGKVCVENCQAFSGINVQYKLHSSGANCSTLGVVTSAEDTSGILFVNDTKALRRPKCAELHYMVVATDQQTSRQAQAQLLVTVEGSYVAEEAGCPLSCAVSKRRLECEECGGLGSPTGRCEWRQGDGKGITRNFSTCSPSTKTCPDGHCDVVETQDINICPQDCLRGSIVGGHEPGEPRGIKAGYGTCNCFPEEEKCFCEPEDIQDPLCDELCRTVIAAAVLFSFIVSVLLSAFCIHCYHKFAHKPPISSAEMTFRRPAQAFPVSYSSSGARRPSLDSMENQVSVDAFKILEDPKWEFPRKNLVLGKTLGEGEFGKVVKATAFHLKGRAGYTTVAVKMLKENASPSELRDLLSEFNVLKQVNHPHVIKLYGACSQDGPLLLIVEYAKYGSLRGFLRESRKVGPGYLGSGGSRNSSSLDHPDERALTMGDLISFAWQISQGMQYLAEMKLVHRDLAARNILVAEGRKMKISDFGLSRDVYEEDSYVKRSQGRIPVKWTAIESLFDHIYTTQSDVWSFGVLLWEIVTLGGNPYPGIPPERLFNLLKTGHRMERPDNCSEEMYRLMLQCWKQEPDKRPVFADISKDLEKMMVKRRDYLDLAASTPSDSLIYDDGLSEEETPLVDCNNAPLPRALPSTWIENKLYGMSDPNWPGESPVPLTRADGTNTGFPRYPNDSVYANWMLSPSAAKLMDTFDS
UniProt Q9BRS2: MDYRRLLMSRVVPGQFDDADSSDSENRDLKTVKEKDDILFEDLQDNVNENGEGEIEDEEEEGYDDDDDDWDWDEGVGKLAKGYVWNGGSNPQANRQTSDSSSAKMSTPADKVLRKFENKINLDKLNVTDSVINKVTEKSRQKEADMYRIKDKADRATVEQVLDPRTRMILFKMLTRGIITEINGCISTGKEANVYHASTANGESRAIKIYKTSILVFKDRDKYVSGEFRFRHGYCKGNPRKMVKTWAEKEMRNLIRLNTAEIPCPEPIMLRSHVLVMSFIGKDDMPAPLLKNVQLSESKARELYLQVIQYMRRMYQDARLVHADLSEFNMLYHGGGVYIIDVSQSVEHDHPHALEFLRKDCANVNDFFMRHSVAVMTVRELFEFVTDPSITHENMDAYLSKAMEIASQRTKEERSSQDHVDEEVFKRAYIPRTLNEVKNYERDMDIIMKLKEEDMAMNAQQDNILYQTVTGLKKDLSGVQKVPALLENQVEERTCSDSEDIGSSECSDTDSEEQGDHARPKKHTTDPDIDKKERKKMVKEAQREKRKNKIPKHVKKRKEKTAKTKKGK
UniProt Q9NYA1, whole entry: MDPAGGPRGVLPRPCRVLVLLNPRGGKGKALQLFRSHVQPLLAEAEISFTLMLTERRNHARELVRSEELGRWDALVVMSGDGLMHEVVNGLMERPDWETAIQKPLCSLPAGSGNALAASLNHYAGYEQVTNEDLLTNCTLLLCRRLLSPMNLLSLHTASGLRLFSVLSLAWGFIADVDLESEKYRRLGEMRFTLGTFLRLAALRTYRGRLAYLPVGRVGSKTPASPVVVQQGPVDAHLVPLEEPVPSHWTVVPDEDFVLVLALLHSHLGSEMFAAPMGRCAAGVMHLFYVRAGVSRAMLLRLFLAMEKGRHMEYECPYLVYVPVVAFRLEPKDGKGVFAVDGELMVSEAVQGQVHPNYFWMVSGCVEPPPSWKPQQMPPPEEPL
UniProt Q9Y6E0: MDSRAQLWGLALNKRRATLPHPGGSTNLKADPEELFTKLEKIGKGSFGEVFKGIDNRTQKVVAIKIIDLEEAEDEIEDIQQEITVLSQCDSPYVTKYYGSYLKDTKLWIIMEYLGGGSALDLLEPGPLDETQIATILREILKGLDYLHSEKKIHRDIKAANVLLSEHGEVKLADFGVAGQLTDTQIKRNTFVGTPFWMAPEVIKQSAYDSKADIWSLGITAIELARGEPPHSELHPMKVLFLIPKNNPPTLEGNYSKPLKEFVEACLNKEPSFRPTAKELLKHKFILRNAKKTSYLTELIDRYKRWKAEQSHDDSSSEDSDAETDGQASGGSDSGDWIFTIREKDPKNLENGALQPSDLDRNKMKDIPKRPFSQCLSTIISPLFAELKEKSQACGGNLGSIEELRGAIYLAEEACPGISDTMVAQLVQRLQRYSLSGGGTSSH

How the values were obtained:
Experiment in all cases: kinase-Nluc reporter destabilization hit call (1 = scored as downregulated) (binary); higher = compound decreases kinase abundance
Details in all cases: K562; 2-18 h
PDPK1 = PDPK1 (UniProt O15530)
PIK4CA = PIK4CA (UniProt P42356)
PIK4CB = PIK4CB (UniProt Q9UBF8)
PLK1 = PLK1 (UniProt P53350)
PRKAA1 = PRKAA1 (UniProt Q13131)
PRKCA = PRKCA (UniProt P17252)
PTK2 = PTK2 (UniProt Q05397)
PTK2B = PTK2B (UniProt Q14289)
RAF1 = RAF1 (UniProt P04049)
[1] = target: RAF1_S257L (clone: RAF1_mut) (UniProt P04049)
RET = RET (UniProt P07949)
[2] = target: RET_M918T (clone: RET_mut) (UniProt P07949)
RIOK1 = RIOK1 (UniProt Q9BRS2)
RIPK1 = RIPK1 (UniProt Q13546)
RIPK2 = RIPK2 (UniProt O43353)
ROR2 = ROR2 (UniProt Q01974)
RPS6KA1 = RPS6KA1 (UniProt Q15418)
SPHK1 = SPHK1 (UniProt Q9NYA1)
SRC = SRC (UniProt P12931)
STK24 = STK24 (UniProt Q9Y6E0)

Measured: kinase-Nluc reporter destabilization hit call

NC1(C(=O)NCCCn2cc(-c3ccc(OC(F)(F)F)cc3)c3cc(CN4CCN(Cc5c(Cl)cccc5Cl)CC4)ccc32)CCNCC1 (2.5 µM)
inactive: PDPK1 = 0 | PIK4CA 0 | PIK4CB 0 | PLK1 = 0 | PRKAA1 = 0 | PRKCA 0 | PTK2 = 0 | PTK2B 0 | RAF1 = 0 | [1] 0 | RET 0 | [2] 0 | RIOK1 = 0 | RIPK1 = 0 | RIPK2 = 0 | ROR2 = 0 | RPS6KA1 = 0 | SPHK1 = 0 | SRC 0 | STK24 = 0

CCC(=O)Nc1cccc(Oc2nc(Nc3ccc(N4CCN(C)CC4)cc3OC)ncc2Cl)c1 (10 µM)
inactive: PDPK1 = 0 | PIK4CA 0 | PIK4CB 0 | PLK1 = 0 | PRKAA1 = 0 | PRKCA 0 | PTK2 = 0 | PTK2B 0 | RAF1 = 0 | [1] 0 | RET 0 | [2] 0 | RIOK1 = 0 | RIPK1 = 0 | RIPK2 = 0 | ROR2 = 0 | RPS6KA1 = 0 | SPHK1 = 0 | SRC 0 | STK24 = 0

COc1cc2cc(Oc3ccc4ccc(=O)oc4c3)c(=O)oc2cc1O [Daphnoretin] (10 µM)
inactive: PDPK1 = 0 | PIK4CA 0 | PIK4CB 0 | PLK1 = 0 | PRKAA1 = 0 | PRKCA 0 | PTK2 = 0 | PTK2B 0 | RAF1 = 0 | [1] 0 | RET 0 | [2] 0 | RIOK1 = 0 | RIPK1 = 0 | RIPK2 = 0 | ROR2 = 0 | RPS6KA1 = 0 | SPHK1 = 0 | SRC 0 | STK24 = 0

COc1ccc2c3n(c(=NC(=O)c4cccnc4)nc2c1OC)CCN3 (2 µM)
inactive: PDPK1 = 0 | PIK4CA 0 | PIK4CB 0 | PLK1 = 0 | PRKAA1 = 0 | PRKCA 0 | PTK2 = 0 | PTK2B 0 | RAF1 = 0 | [1] 0 | RET 0 | [2] 0 | RIOK1 = 0 | RIPK1 = 0 | RIPK2 = 0 | ROR2 = 0 | RPS6KA1 = 0 | SPHK1 = 0 | SRC 0 | STK24 = 0

COC(=O)/C=C/c1ccccc1 [Methyl cinnamate] (10 µM)
inactive: PDPK1 = 0 | PIK4CA 0 | PIK4CB 0 | PLK1 = 0 | PRKAA1 = 0 | PRKCA 0 | PTK2 = 0 | PTK2B 0 | RAF1 = 0 | [1] 0 | RET 0 | [2] 0 | RIOK1 = 0 | RIPK1 = 0 | RIPK2 = 0 | ROR2 = 0 | RPS6KA1 = 0 | SPHK1 = 0 | SRC 0 | STK24 = 0

CC1(N)CCN(c2cccnc2NC(=O)c2nc(-c3ncccc3C(F)(F)F)cnc2N)CC1 [Darovasertib] (10 µM)
inactive: PDPK1 = 0 | PIK4CA 0 | PIK4CB 0 | PLK1 = 0 | PRKAA1 = 0 | PRKCA 0 | PTK2 = 0 | PTK2B 0 | RAF1 = 0 | [1] 0 | RET 0 | [2] 0 | RIOK1 = 0 | RIPK1 = 0 | RIPK2 = 0 | ROR2 = 0 | RPS6KA1 = 0 | SPHK1 = 0 | SRC 0 | STK24 = 0

CNC(=O)c1ccc2c(C(=Nc3cccc(CN(C)C)c3)c3ccccc3)c(O)[nH]c2c1 [MEK inhibitor] (10 µM)
inactive: PDPK1 = 0 | PIK4CA 0 | PIK4CB 0 | PLK1 = 0 | PRKAA1 = 0 | PRKCA 0 | PTK2 = 0 | PTK2B 0 | RAF1 = 0 | [1] 0 | RET 0 | [2] 0 | RIOK1 = 0 | RIPK1 = 0 | RIPK2 = 0 | ROR2 = 0 | RPS6KA1 = 0 | SPHK1 = 0 | SRC 0 | STK24 = 0

Nc1ncc(C(=O)NC2CN(C(=O)C3CC3)C2)c2ccc(-c3cccc(F)c3)nc12 (2 µM)
inactive: PDPK1 = 0 | PIK4CA 0 | PIK4CB 0 | PLK1 = 0 | PRKAA1 = 0 | PRKCA 0 | PTK2 = 0 | PTK2B 0 | RAF1 = 0 | [1] 0 | RET 0 | [2] 0 | RIOK1 = 0 | RIPK1 = 0 | RIPK2 = 0 | ROR2 = 0 | RPS6KA1 = 0 | SPHK1 = 0 | SRC 0 | STK24 = 0

CC(Cc1ccc(O)c(O)c1)C(C)Cc1ccc(O)c(O)c1 (stereo not given) [Nordihydroguaiaretic acid] (2.5 µM)
inactive: PDPK1 = 0 | PIK4CA 0 | PIK4CB 0 | PLK1 = 0 | PRKAA1 = 0 | PRKCA 0 | PTK2 = 0 | PTK2B 0 | RAF1 = 0 | [1] 0 | RET 0 | [2] 0 | RIOK1 = 0 | RIPK1 = 0 | RIPK2 = 0 | ROR2 = 0 | RPS6KA1 = 0 | SPHK1 = 0 | SRC 0 | STK24 = 0

Cc1cc(CSc2ccccc2C(=O)NCCNc2ccc(C(F)(F)F)cc2[N+](=O)[O-])on1 (10 µM)
inactive: PDPK1 = 0 | PIK4CA 0 | PIK4CB 0 | PLK1 = 0 | PRKAA1 = 0 | PRKCA 0 | PTK2 = 0 | PTK2B 0 | RAF1 = 0 | [1] 0 | RET 0 | [2] 0 | RIOK1 = 0 | RIPK1 = 0 | RIPK2 = 0 | ROR2 = 0 | RPS6KA1 = 0 | SPHK1 = 0 | SRC 0 | STK24 = 0

C[C@@H]1O[C@@H](Oc2cc(O)c3c(=O)c(O[C@@H]4O[C@@H](C)[C@H](O)[C@@H](O)[C@H]4O)c(-c4ccc(O)cc4)oc3c2)[C@H](O)[C@H](O)[C@H]1O [Kaempferitrin] (10 µM)
inactive: PDPK1 = 0 | PIK4CA 0 | PIK4CB 0 | PLK1 = 0 | PRKAA1 = 0 | PRKCA 0 | PTK2 = 0 | PTK2B 0 | RAF1 = 0 | [1] 0 | RET 0 | [2] 0 | RIOK1 = 0 | RIPK1 = 0 | RIPK2 = 0 | ROR2 = 0 | RPS6KA1 = 0 | SPHK1 = 0 | SRC 0 | STK24 = 0

Nc1ncnc2c1nc(Br)n2[C@@H]1O[C@@H]2COP(=O)(O)O[C@H]2[C@H]1O [8-Bromo-cAMP sodium salt] (10 µM)
inactive: PDPK1 = 0 | PIK4CA 0 | PIK4CB 0 | PLK1 = 0 | PRKAA1 = 0 | PRKCA 0 | PTK2 = 0 | PTK2B 0 | RAF1 = 0 | [1] 0 | RET 0 | [2] 0 | RIOK1 = 0 | RIPK1 = 0 | RIPK2 = 0 | ROR2 = 0 | RPS6KA1 = 0 | SPHK1 = 0 | SRC 0 | STK24 = 0

CNC(=O)c1cc2c(Oc3ccc(NC(=O)C4(C(=O)Nc5ccc(F)cc5)CC4)cc3)ccnc2cc1OC (2.5 µM)
inactive: PDPK1 = 0 | PIK4CA 0 | PIK4CB 0 | PLK1 = 0 | PRKAA1 = 0 | PRKCA 0 | PTK2 = 0 | PTK2B 0 | RAF1 = 0 | [1] 0 | RET 0 | [2] 0 | RIOK1 = 0 | RIPK1 = 0 | RIPK2 = 0 | ROR2 = 0 | RPS6KA1 = 0 | SPHK1 = 0 | SRC 0 | STK24 = 0

COc1cc(F)ccc1-c1ncnc(Nc2cccc(C[S@](C)(=N)=O)c2)n1 [Atuveciclib] (2.5 µM)
inactive: PDPK1 = 0 | PIK4CA 0 | PIK4CB 0 | PLK1 = 0 | PRKAA1 = 0 | PRKCA 0 | PTK2 = 0 | PTK2B 0 | RAF1 = 0 | [1] 0 | RET 0 | [2] 0 | RIOK1 = 0 | RIPK1 = 0 | RIPK2 = 0 | ROR2 = 0 | RPS6KA1 = 0 | SPHK1 = 0 | SRC 0 | STK24 = 0

COc1cc(N2CCOCC2)ccc1Nc1ncc(F)c(Nc2ccccc2NS(C)(=O)=O)n1 (10 µM)
inactive: PDPK1 = 0 | PIK4CA 0 | PIK4CB 0 | PLK1 = 0 | PRKAA1 = 0 | PRKCA 0 | PTK2 = 0 | PTK2B 0 | RAF1 = 0 | [1] 0 | RET 0 | [2] 0 | RIOK1 = 0 | RIPK1 = 0 | RIPK2 = 0 | ROR2 = 0 | RPS6KA1 = 0 | SPHK1 = 0 | SRC 0 | STK24 = 0

Cc1cc(C(=O)NC(C)(C)C)cc(C#Cc2ccc3c4c(oc3c2)C(C)(C)c2cc(NS(C)(=O)=O)ccc2C4=O)n1 (10 µM)
inactive: PDPK1 = 0 | PIK4CA 0 | PIK4CB 0 | PLK1 = 0 | PRKAA1 = 0 | PRKCA 0 | PTK2 = 0 | PTK2B 0 | RAF1 = 0 | [1] 0 | RET 0 | [2] 0 | RIOK1 = 0 | RIPK1 = 0 | RIPK2 = 0 | ROR2 = 0 | RPS6KA1 = 0 | SPHK1 = 0 | SRC 0 | STK24 = 0

CCCCCc1ccc(/C=C/[C@H](O)[C@@H](CO)NC)cc1 [SK1-I (hydrochloride)] (10 µM)
inactive: PDPK1 = 0 | PIK4CA 0 | PIK4CB 0 | PLK1 = 0 | PRKAA1 = 0 | PRKCA 0 | PTK2 = 0 | PTK2B 0 | RAF1 = 0 | [1] 0 | RET 0 | [2] 0 | RIOK1 = 0 | RIPK1 = 0 | RIPK2 = 0 | ROR2 = 0 | RPS6KA1 = 0 | SPHK1 = 0 | SRC 0 | STK24 = 0

Cc1cccc(COc2cccc(/C=C3\C(=O)NN(c4ccccc4)C3=O)c2)c1 (10 µM)
inactive: PDPK1 = 0 | PIK4CA 0 | PIK4CB 0 | PLK1 = 0 | PRKAA1 = 0 | PRKCA 0 | PTK2 = 0 | PTK2B 0 | RAF1 = 0 | [1] 0 | RET 0 | [2] 0 | RIOK1 = 0 | RIPK1 = 0 | RIPK2 = 0 | ROR2 = 0 | RPS6KA1 = 0 | SPHK1 = 0 | SRC 0 | STK24 = 0

3 compounds out of the list, sorted by molar mass, ascending.
COc1ccc2c3n(c(=NC(=O)c4cccnc4)nc2c1OC)CCN3 (2 µM)
inactive: PDPK1 = 0 | PIK4CA 0 | PIK4CB 0 | PLK1 = 0 | PRKAA1 = 0 | PRKCA 0 | PTK2 = 0 | PTK2B 0 | RAF1 = 0 | [1] 0 | RET 0 | [2] 0 | RIOK1 = 0 | RIPK1 = 0 | RIPK2 = 0 | ROR2 = 0 | RPS6KA1 = 0 | SPHK1 = 0 | SRC 0 | STK24 = 0

COc1cc(F)ccc1-c1ncnc(Nc2cccc(C[S@](C)(=N)=O)c2)n1 [Atuveciclib] (2.5 µM)
inactive: PDPK1 = 0 | PIK4CA 0 | PIK4CB 0 | PLK1 = 0 | PRKAA1 = 0 | PRKCA 0 | PTK2 = 0 | PTK2B 0 | RAF1 = 0 | [1] 0 | RET 0 | [2] 0 | RIOK1 = 0 | RIPK1 = 0 | RIPK2 = 0 | ROR2 = 0 | RPS6KA1 = 0 | SPHK1 = 0 | SRC 0 | STK24 = 0

NC1(C(=O)NCCCn2cc(-c3ccc(OC(F)(F)F)cc3)c3cc(CN4CCN(Cc5c(Cl)cccc5Cl)CC4)ccc32)CCNCC1 (2.5 µM)
inactive: PDPK1 = 0 | PIK4CA 0 | PIK4CB 0 | PLK1 = 0 | PRKAA1 = 0 | PRKCA 0 | PTK2 = 0 | PTK2B 0 | RAF1 = 0 | [1] 0 | RET 0 | [2] 0 | RIOK1 = 0 | RIPK1 = 0 | RIPK2 = 0 | ROR2 = 0 | RPS6KA1 = 0 | SPHK1 = 0 | SRC 0 | STK24 = 0
